# In the supplement of paper PMC6411743:
# Chains of the proteins cited; added tags and fusions are not shown. Lines headed by an entry give the natural chain unless they say otherwise; changes in a name come on top.
# UniProt Q5T8P6: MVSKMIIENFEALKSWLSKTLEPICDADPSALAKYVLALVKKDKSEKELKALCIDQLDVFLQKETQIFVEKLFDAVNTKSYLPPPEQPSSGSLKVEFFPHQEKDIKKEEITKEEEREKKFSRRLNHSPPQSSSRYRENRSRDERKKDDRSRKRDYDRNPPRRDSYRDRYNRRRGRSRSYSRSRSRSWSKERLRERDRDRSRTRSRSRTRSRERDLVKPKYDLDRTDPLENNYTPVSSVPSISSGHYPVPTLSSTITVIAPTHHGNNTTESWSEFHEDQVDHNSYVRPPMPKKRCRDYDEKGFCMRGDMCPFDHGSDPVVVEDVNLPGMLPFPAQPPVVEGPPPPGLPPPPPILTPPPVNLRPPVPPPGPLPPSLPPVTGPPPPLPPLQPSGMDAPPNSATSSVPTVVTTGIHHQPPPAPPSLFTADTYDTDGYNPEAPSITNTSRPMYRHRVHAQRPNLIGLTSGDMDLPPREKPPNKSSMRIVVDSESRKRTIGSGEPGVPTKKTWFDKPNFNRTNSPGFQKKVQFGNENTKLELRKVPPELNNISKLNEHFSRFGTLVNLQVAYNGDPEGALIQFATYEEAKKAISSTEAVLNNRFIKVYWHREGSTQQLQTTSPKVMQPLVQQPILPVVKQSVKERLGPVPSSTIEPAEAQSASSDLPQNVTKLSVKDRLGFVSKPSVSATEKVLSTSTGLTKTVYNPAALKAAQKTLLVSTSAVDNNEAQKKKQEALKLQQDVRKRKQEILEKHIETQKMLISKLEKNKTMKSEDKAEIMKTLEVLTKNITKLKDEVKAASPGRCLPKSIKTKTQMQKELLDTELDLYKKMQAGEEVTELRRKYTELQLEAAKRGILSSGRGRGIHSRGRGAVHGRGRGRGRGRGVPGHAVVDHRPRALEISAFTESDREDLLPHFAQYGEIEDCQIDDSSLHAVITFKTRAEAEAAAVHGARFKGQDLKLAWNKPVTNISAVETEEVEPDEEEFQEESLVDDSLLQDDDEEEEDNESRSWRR
# UniProt Q15427: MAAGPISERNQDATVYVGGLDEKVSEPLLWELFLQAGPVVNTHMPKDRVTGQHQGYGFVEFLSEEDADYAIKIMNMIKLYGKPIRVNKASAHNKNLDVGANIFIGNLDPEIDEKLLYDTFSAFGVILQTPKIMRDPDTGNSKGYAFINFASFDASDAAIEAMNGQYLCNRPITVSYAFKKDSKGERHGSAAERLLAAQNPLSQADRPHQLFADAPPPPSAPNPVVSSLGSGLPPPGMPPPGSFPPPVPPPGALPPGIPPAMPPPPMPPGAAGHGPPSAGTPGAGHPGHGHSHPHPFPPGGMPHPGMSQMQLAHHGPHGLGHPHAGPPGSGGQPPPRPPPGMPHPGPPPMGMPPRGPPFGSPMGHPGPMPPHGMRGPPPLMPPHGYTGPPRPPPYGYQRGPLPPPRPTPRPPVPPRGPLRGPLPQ
# UniProt Q15404: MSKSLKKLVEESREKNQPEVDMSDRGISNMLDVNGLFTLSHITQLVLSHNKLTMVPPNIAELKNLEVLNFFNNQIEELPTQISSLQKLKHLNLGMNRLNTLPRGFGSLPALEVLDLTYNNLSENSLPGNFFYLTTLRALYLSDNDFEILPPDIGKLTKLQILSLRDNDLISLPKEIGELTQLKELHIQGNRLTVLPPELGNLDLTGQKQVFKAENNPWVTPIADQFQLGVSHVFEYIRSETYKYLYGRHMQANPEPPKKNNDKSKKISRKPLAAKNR
# UniProt Q5QJ74: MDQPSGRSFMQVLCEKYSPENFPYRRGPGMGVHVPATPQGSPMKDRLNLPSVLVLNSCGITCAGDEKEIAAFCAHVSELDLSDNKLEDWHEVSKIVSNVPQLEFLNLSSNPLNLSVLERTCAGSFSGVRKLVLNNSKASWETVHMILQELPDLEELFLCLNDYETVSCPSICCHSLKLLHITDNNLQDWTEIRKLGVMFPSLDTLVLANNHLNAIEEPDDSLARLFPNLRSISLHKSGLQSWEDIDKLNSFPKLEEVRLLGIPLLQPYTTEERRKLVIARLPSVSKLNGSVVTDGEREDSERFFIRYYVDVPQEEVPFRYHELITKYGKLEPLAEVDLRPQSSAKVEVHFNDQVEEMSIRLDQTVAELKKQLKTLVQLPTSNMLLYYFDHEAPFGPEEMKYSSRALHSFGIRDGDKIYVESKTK
# UniProt Q3YEC7: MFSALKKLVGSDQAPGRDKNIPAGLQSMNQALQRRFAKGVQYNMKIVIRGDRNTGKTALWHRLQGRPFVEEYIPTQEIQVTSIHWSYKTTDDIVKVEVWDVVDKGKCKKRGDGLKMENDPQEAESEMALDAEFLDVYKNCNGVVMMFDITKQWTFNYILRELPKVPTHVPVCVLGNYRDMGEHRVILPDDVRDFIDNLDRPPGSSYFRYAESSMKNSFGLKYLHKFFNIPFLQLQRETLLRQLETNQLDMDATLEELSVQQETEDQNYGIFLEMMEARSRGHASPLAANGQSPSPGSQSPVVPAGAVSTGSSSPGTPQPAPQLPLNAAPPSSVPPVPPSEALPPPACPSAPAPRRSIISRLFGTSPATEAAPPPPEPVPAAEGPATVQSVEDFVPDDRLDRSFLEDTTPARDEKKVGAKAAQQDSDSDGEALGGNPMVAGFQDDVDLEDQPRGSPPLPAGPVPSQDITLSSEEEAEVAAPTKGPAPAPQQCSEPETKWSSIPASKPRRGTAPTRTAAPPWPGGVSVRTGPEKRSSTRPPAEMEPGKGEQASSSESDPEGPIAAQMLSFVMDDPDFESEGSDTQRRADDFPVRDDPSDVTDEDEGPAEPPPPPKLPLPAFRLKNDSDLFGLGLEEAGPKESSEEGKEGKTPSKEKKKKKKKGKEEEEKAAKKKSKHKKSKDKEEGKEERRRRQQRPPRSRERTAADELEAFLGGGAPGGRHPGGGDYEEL
# UniProt Q5EBL8: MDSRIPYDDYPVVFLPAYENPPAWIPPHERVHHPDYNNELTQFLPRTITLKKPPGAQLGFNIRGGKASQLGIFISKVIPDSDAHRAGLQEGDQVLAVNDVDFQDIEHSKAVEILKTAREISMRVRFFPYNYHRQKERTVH
# UniProt Q16222: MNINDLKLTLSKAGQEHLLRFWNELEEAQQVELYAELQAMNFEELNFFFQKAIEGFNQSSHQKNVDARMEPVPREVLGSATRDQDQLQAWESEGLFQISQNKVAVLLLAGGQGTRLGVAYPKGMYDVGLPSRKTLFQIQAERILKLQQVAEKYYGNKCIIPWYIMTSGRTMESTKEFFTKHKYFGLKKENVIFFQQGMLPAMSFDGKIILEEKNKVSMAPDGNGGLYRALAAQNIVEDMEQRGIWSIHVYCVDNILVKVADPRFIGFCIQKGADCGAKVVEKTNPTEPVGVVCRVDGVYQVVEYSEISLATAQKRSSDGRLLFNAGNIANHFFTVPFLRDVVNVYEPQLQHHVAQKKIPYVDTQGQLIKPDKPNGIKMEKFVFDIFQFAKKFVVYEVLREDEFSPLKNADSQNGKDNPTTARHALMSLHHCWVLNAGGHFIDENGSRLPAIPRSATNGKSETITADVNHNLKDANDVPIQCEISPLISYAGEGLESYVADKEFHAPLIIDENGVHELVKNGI
# UniProt Q15650: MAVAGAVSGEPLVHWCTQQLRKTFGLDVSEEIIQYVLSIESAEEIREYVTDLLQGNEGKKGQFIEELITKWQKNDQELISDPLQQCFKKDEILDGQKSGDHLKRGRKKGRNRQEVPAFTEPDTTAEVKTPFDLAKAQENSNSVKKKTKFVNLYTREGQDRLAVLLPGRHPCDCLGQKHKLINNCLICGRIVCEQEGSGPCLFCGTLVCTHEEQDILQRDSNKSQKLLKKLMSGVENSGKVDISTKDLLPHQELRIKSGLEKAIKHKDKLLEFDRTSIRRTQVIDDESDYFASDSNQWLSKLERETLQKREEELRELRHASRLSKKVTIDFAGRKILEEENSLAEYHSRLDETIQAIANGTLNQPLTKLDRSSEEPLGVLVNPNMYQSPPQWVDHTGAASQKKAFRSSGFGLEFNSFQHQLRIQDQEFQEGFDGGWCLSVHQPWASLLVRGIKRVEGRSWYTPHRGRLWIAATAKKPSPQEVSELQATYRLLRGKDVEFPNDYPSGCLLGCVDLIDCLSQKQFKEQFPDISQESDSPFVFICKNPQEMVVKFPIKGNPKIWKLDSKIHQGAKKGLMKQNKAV
# UniProt Q5JTH9: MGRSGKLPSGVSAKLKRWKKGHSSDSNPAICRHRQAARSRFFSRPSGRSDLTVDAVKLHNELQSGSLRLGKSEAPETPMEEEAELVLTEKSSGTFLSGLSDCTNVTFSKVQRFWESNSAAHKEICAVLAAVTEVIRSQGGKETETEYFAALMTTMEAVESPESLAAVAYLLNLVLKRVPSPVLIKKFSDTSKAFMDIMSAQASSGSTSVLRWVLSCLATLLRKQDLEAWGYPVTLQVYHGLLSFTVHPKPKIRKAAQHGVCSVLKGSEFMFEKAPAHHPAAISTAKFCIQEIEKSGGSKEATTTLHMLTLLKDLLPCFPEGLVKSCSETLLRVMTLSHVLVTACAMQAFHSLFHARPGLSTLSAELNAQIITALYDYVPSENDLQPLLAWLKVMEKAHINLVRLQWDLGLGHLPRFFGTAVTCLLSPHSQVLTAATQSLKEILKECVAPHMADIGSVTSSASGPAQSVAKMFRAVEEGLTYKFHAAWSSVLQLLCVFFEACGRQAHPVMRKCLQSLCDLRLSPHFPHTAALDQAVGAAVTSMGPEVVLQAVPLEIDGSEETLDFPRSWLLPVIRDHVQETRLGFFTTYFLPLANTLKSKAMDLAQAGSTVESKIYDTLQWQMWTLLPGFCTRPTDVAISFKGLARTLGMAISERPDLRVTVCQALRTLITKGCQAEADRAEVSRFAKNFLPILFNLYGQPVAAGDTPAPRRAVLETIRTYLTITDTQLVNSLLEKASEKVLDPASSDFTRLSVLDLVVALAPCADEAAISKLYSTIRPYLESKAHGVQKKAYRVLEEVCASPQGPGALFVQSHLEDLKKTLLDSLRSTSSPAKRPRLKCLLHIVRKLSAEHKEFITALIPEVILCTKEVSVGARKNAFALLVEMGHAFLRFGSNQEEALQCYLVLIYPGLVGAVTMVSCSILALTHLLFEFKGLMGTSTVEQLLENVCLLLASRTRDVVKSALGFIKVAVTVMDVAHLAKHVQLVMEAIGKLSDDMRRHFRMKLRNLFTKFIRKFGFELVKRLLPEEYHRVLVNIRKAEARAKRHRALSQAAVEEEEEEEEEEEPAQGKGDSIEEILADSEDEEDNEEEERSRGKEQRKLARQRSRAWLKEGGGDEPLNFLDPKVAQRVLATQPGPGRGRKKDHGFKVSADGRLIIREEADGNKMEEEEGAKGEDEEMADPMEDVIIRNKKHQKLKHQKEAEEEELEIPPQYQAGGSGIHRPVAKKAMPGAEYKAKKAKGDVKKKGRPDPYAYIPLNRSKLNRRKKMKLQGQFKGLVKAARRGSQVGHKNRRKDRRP
# UniProt Q8NE71: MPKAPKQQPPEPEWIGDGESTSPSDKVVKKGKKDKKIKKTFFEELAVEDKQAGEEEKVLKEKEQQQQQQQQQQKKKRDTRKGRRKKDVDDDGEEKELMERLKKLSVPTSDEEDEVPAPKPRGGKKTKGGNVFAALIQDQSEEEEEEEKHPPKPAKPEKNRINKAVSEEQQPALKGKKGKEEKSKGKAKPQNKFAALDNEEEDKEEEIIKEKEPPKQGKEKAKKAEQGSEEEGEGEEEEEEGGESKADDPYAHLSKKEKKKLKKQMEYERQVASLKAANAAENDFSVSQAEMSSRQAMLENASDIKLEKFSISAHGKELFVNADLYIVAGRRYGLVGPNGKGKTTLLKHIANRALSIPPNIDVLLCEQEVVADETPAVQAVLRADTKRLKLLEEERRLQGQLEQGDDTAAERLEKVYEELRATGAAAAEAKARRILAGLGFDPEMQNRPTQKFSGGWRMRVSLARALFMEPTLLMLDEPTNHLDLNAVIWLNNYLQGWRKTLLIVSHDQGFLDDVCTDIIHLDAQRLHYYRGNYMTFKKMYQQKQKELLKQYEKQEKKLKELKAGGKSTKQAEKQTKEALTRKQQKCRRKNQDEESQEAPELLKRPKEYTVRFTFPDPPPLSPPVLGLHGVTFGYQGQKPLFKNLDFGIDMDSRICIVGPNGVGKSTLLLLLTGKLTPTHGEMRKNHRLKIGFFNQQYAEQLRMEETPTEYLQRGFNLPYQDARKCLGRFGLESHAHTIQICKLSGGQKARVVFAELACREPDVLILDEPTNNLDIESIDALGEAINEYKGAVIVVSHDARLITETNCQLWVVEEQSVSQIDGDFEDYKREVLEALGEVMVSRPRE
# UniProt Q15329: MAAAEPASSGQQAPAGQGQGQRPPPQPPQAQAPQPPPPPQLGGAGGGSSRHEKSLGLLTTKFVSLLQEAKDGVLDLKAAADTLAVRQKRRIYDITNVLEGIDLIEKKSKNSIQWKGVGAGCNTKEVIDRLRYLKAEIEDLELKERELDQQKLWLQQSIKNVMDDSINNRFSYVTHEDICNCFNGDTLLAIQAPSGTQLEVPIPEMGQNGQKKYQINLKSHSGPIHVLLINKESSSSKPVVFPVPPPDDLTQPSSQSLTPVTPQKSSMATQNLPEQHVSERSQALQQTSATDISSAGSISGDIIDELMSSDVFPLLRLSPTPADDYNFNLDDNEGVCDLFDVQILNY
# ± gives the standard deviation of the averaged measurements. The entries are a selection whose mix differs from that of the whole data set.
# Compound: Nc1ncnc2c1ncn2[C@@H]1O[C@H](COP(=O)(O)OP(=O)(O)NP(=O)(O)O)[C@@H](O)[C@H]1O [adenylyl imidodiphosphate]
# Test: NP40-soluble protein abundance relative to vehicle (solubility fold change) (ratio); higher = more soluble protein in presence of AMP-PNP
# How it was run: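 Data come from three independent experiments in which Dounce-homogenised Jurkat crude lysate was treated at eight concentrations from 0.1 to 10 mM. Treatment ran 10 min at room temperature and then 3 min at 37 °C, after which 0.8% NP40 and benzonase were added for 60 min at 4 °C before ultracentrifugation. The supernatant underwent TMT labelling and LC-MS/MS, and vsn-normalised intensities were expressed as fold change against the detergent-processed vehicle in each replicate.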
Target,NP40-soluble protein abundance (concentration: 1mM),NP40-soluble protein abundance (concentration: 2mM),NP40-soluble protein abundance (concentration: 4mM),NP40-soluble protein abundance (concentration: 6mM),NP40-soluble protein abundance (concentration: 8mM),NP40-soluble protein abundance (concentration: 10mM)
UniProt Q5T8P6 and related entries,1.05 ± 0.042,1.11 ± 0.067,1.1 ± 0.055,1.14 ± 0.061,1.16 ± 0.077,1.21 ± 0.08
Q495G5 and related entries (UniProt Q8IVH4),0.978 ± 0.028,0.96 ± 0.03,0.994 ± 0.032,1.05 ± 0.089,1.04 ± 0.073,1.05 ± 0.074
UniProt Q504Q3 and related entries,0.993 ± 0.044,0.99 ± 0.045,1 ± 0.022,0.981 ± 0.02,0.9797 ± 0.0095,0.984 ± 0.025
UniProt Q27J81 and related entries,1.015 ± 0.0078,1.05 ± 0.022,1.03 ± 0.016,0.9949 ± 0.0027,0.985 ± 0.011,1.03 ± 0.068
MAPRE1 (UniProt Q15691),1.07 ± 0.051,1.15 ± 0.059,1.05 ± 0.093,1.02 ± 0.017,0.995 ± 0.027,1.04 ± 0.12
UniProt Q15906 and related entries,0.994 ± 0.068,1.04 ± 0.06,1.05 ± 0.095,1.09 ± 0.097,1.07 ± 0.096,1.14 ± 0.1
UBE3C (UniProt Q15386),0.927 ± 0.024,0.9294 ± 0.0015,0.946 ± 0.023,0.935 ± 0.033,0.961 ± 0.026,0.957 ± 0.038
TMED2 (UniProt Q15363),0.927 ± 0.044,0.854 ± 0.095,0.882 ± 0.025,0.972 ± 0.045,0.977 ± 0.025,0.965 ± 0.065
SF3B4 (UniProt Q15427),1.06 ± 0.065,1.05 ± 0.014,1.1 ± 0.055,1.07 ± 0.028,1.11 ± 0.086,1.08 ± 0.061
RSU1 (UniProt Q15404),1 ± 0.024,0.995 ± 0.032,1.02 ± 0.035,1.01 ± 0.053,1.01 ± 0.045,1.03 ± 0.073
TBC1D25 (UniProt Q3MII6),0.9908 ± 0.0091,0.995 ± 0.019,0.9837 ± 0.0051,0.969 ± 0.01,0.9987 ± 0.0092,0.992 ± 0.015
NONO (UniProt Q15233),1.09 ± 0.048,1.17 ± 0.064,1.22 ± 0.056,1.39 ± 0.12,1.45 ± 0.15,1.56 ± 0.18
C19orf54 (UniProt Q5BKX5),1.01 ± 0.016,0.994 ± 0.066,1.01 ± 0.043,0.999 ± 0.027,0.978 ± 0.04,0.985 ± 0.038
TBCEL (UniProt Q5QJ74),0.9994 ± 0.0047,0.974 ± 0.015,0.9867 ± 0.0053,0.982 ± 0.022,1.02 ± 0.038,0.964 ± 0.033
UniProt Q3YEC7,1 ± 0.031,1.05 ± 0.046,1.04 ± 0.014,1.03 ± 0.017,1.01 ± 0.039,1.02 ± 0.043
UniProt Q5EBL8 and related entries,1 ± 0.011,1.02 ± 0.023,0.9905 ± 0.0052,1 ± 0.025,1.02 ± 0.03,1.017 ± 0.0054
Q5TBH9 and related entries (UniProt Q8NDD1),1.03 ± 0.072,1.11 ± 0.091,1.11 ± 0.09,1.15 ± 0.097,1.19 ± 0.084,1.21 ± 0.1
UniProt Q16656 and related entries,1.02 ± 0.083,1.02 ± 0.081,1.02 ± 0.049,0.99 ± 0.016,0.985 ± 0.041,1.01 ± 0.023
UniProt Q5H8A4-5,0.979 ± 0.011,0.971 ± 0.019,0.983 ± 0.034,0.92 ± 0.01,0.9558 ± 0.0061,0.952 ± 0.016
OCIAD2 (UniProt Q56VL3),0.979 ± 0.037,1.04 ± 0.081,1 ± 0.027,1.03 ± 0.076,1.01 ± 0.028,1.063 ± 0.009
UniProt Q16222 and related entries,0.972 ± 0.016,0.943 ± 0.071,0.976 ± 0.021,0.981 ± 0.033,0.988 ± 0.04,0.975 ± 0.041
UniProt Q58WW2 and related entries,0.996 ± 0.017,1.02 ± 0.064,0.998 ± 0.04,0.9925 ± 0.0036,0.9942 ± 0.0042,0.962 ± 0.032

# A portion from further up, as a working copy:
Target,NP40-soluble protein abundance (concentration: 1mM),NP40-soluble protein abundance (concentration: 2mM),NP40-soluble protein abundance (concentration: 4mM),NP40-soluble protein abundance (concentration: 6mM),NP40-soluble protein abundance (concentration: 8mM),NP40-soluble protein abundance (concentration: 10mM)
UniProt Q504Q3 and related entries,0.993 ± 0.044,0.99 ± 0.045,1 ± 0.022,0.981 ± 0.02,0.9797 ± 0.0095,0.984 ± 0.025
UniProt Q27J81 and related entries,1.015 ± 0.0078,1.05 ± 0.022,1.03 ± 0.016,0.9949 ± 0.0027,0.985 ± 0.011,1.03 ± 0.068
MAPRE1 (UniProt Q15691),1.07 ± 0.051,1.15 ± 0.059,1.05 ± 0.093,1.02 ± 0.017,0.995 ± 0.027,1.04 ± 0.12

# Further entries:

Target,NP40-soluble protein abundance (concentration: 1mM),NP40-soluble protein abundance (concentration: 2mM),NP40-soluble protein abundance (concentration: 4mM),NP40-soluble protein abundance (concentration: 6mM),NP40-soluble protein abundance (concentration: 8mM),NP40-soluble protein abundance (concentration: 10mM)
TRIP4 (UniProt Q15650),0.991 ± 0.015,1.02 ± 0.052,1.04 ± 0.043,1.05 ± 0.033,1.03 ± 0.07,1.03 ± 0.1
Q5T063 and related entries (UniProt Q9NZJ6),0.9959 ± 0.0042,1.01 ± 0.035,0.967 ± 0.018,1 ± 0.022,0.979 ± 0.032,1 ± 0.059
UniProt Q5JTH9 and related entries,1.017 ± 0.0055,1.01 ± 0.036,1.01 ± 0.015,0.982 ± 0.019,0.994 ± 0.025,1.01 ± 0.036
UniProt Q5THK1 and related entries,0.989 ± 0.043,0.98 ± 0.017,0.974 ± 0.02,0.964 ± 0.068,0.93 ± 0.051,0.929 ± 0.062
UniProt Q15286,0.958 ± 0.041,0.962 ± 0.037,0.974 ± 0.022,1 ± 0.043,1 ± 0.031,0.992 ± 0.028
LLGL1 (UniProt Q15334),0.976 ± 0.013,0.9958 ± 0.0077,0.975 ± 0.015,0.906 ± 0.028,0.908 ± 0.019,0.915 ± 0.019
Q5STZ8 and related entries (UniProt Q8NE71),1 ± 0.017,1.01 ± 0.014,1.08 ± 0.022,1.12 ± 0.049,1.13 ± 0.041,1.18 ± 0.017
UniProt Q4ADV7 and related entries,0.943 ± 0.026,0.963 ± 0.043,0.9491 ± 0.0042,0.937 ± 0.029,0.924 ± 0.014,0.92 ± 0.011
UniProt Q15642-2|Q15642-3|Q15642-4|W4VSQ9 and related entries,1.09 ± 0.014,1.07 ± 0.036,1.07 ± 0.014,1.04 ± 0.054,1.07 ± 0.025,1.06 ± 0.065
AGK (UniProt Q53H12),1 ± 0.027,0.951 ± 0.017,1 ± 0.024,0.95 ± 0.022,0.95 ± 0.07,0.904 ± 0.057
UniProt Q15329 and related entries,0.974 ± 0.018,1.02 ± 0.056,0.962 ± 0.016,0.997 ± 0.043,0.971 ± 0.03,0.966 ± 0.027
UniProt Q2M296 and related entries,0.97439 ± 0.00096,1.03 ± 0.039,1 ± 0.033,1.08 ± 0.071,1.08 ± 0.043,1.09 ± 0.1
UniProt Q4KMQ2 and related entries,1.02 ± 0.032,1.03 ± 0.067,1.01 ± 0.041,1.02 ± 0.034,1.01 ± 0.016,0.999 ± 0.036
UniProt Q4VC05 and related entries,1.03 ± 0.047,1.07 ± 0.073,0.992 ± 0.023,1.02 ± 0.026,0.997 ± 0.015,1.01 ± 0.027
UniProt Q16181 and related entries,0.9998 ± 0.0071,0.986 ± 0.021,0.963 ± 0.025,1 ± 0.0094,0.976 ± 0.031,0.98 ± 0.038
UniProt Q5JS54 and related entries,1.0077 ± 0.00064,1 ± 0.014,0.999 ± 0.022,0.99 ± 0.014,1.01 ± 0.027,0.98628 ± 0.00064
UniProt Q15397,1.03 ± 0.03,1.08 ± 0.045,1.13 ± 0.083,1.15 ± 0.091,1.14 ± 0.07,1.24 ± 0.1
TOMM34 (UniProt Q15785),1.01 ± 0.035,1.06 ± 0.071,1 ± 0.017,1.029 ± 0.006,1.02 ± 0.016,1.05 ± 0.025
UniProt Q15291 and related entries,1.01 ± 0.065,0.982 ± 0.052,1.03 ± 0.043,1.04 ± 0.063,1.08 ± 0.071,1.04 ± 0.062
UniProt Q15223,1.01 ± 0.026,1.028 ± 0.0082,1.011 ± 0.0089,1.01 ± 0.011,0.997 ± 0.023,1.01 ± 0.028
UniProt Q5TDH0 and related entries,1 ± 0.017,0.985 ± 0.034,0.9817 ± 0.0095,0.965 ± 0.017,0.966 ± 0.028,0.956 ± 0.047
UniProt Q5T3I0 and related entries,1.14 ± 0.029,1.2 ± 0.042,1.21 ± 0.042,1.21 ± 0.047,1.22 ± 0.024,1.3 ± 0.079
